{"sequences": {"note": "By UniProt entry, the sequences of proteins in these tests, tags left out.", "UniProt Q69ZR9": "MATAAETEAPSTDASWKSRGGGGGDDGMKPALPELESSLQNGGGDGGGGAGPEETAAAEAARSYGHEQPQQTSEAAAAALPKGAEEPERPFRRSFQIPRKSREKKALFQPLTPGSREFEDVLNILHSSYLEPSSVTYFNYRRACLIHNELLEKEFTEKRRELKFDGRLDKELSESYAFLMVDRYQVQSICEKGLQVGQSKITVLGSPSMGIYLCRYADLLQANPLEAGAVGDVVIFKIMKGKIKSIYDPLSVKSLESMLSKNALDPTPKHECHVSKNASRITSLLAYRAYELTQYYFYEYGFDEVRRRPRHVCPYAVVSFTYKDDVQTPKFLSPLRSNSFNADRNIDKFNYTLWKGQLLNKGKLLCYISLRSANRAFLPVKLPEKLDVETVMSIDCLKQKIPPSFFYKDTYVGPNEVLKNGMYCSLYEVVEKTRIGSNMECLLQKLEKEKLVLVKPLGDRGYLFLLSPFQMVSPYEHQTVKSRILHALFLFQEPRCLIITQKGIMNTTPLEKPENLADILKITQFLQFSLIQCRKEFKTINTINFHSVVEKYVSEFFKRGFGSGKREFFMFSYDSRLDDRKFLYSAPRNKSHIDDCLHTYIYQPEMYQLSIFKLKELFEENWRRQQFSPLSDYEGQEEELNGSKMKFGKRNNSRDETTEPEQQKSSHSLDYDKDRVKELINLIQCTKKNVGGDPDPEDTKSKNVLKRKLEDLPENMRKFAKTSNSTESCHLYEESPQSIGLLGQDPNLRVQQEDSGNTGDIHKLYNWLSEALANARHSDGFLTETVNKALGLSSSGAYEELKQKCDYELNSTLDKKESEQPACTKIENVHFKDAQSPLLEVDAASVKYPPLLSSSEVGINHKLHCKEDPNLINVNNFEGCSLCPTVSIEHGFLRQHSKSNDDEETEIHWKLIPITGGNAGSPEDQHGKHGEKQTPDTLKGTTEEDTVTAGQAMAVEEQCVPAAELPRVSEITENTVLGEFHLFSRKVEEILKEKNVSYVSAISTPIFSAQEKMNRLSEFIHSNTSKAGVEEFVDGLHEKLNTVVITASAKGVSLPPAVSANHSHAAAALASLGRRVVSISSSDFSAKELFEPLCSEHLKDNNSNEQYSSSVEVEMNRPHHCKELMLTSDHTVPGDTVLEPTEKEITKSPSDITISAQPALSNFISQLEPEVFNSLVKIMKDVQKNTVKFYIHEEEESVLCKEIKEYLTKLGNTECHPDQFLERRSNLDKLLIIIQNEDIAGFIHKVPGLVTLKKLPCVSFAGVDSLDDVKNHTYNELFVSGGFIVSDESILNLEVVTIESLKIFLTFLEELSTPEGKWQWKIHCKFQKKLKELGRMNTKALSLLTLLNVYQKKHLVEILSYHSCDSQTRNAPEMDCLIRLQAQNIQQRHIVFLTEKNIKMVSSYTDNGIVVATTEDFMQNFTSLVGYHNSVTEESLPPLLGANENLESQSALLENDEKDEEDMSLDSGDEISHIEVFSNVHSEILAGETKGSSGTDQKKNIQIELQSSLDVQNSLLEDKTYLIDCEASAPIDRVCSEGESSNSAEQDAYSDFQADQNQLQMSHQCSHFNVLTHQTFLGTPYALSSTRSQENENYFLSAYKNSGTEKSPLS", "UniProt Q61103": "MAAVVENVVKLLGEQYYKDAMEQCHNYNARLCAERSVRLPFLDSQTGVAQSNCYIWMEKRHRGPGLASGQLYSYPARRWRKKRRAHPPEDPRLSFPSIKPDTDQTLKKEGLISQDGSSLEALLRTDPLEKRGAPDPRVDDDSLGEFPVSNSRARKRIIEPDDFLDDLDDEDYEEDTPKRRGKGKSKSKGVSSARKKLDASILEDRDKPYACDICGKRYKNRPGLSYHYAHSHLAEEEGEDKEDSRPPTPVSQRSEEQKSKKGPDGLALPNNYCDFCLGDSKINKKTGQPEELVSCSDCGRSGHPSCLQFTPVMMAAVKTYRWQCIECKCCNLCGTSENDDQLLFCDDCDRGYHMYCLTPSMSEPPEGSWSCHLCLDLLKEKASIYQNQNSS", "UniProt Q8BFQ4": "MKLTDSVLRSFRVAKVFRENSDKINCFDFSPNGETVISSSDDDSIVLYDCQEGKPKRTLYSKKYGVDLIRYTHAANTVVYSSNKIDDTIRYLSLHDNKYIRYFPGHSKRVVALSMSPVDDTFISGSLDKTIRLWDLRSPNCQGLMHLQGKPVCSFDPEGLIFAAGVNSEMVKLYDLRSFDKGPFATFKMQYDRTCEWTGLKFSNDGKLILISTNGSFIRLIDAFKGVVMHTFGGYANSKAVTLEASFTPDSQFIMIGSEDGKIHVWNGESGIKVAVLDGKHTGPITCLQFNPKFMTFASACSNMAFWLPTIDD"}, "source": "paper PMC8144423", "molecules": {"B1": {"name": "Cd2bp2 (protein, UniProt Q9CWK3 1-342)", "chain": "MPKRKVTFQGVGDEDGEDEISVPKKKLVDPVAAAGGPGSRFKGKHSLDSDEEDDDEEGSSKYDILASEDVEGQEAATLPSEGGVRITPFNLQEEMEEGHFDADGNYFLNQDAQIRDSWLDNIDWVRIKERPPDKHQVSDSEEEDSLGQTPMSAQALLEGLLELLLPRETVAGALRRLGARGGGKGSNSKGTGRPNSPQRLDRLSGLADQMVARGNLGVYQETRERLAMRLKGLGCRAQGSHDPTPPPSLDMFAEEVAEGELETPTPTQREEAESAGDGLMDVMWEYKWENTGDAELYGPFTSAQMQTWVSEGYFPDGVYCRKLDPPGGQFYNSKRIDFELYT"}, "B2": {"name": "Lrwd1 (protein, UniProt Q8BUI3 1-648)", "chain": "MAPLTPQLLLQRGRPKTDKLGKIQSLNLSGLQLLSEHLDPNLLGRLKKLRELDLSNNLLETLPANLGLSHLRILRCTNNQLGDVTALHQFPELEELNLEGNPFLTVSDNLKVSFLLPKLRKVNGKDTASTCSQVENLDRELMDRVTAHWQKFIATVSPEEETDKVRADFMRSAVRDVCYGPESLIEFTQWRVRMIAEELVASGGAQVQDAKVPVEHPQAAGASKFRAREVASKRPGKDPVTLPPSKRVRALPPAQAEGSPMGADGGQAALHLEPLHFLQCHSRNNSPKDLETQLWACAFEPAREEGHSRATSQTVATCGGEAVCVIDCQTGLVLHKYKVPGEEFFSVAWTALTVVTQAGHKKRWNMLAAAGLRGMVRLLHVRAGFCCSVIRAHKKAIATLCFSPSHETHLFTASYDKRIILWDIGVPNQDYKFQASQLLTLNCGSVPLRLCPVATCPDDFLLAGCEGGCYCWDVRLDQPQKQRVCEVNFIFSEDSKVSGQRVDGLAFVNEDVVASKGSGQGTIYLWSWSQTWAGRGRQSVLPVVILVRLQWSPTNLAYFSLSTCPGKNLVLCGDEEGSVWIYDVEHLLKEPPQATTLQPPTQILKWPQPTALGQPVTKTMINTVVANAAFTYLTALTDSNIVSIWRRC"}, "B3": {"name": "ATF7IP (HUSH-associated member), endogenous (protein, UniProt Q7TT18 1-1306)", "chain": "MDSVEEPQKKVFKARKTMRASDRQQLDAVHRVKGELLRADGKLLNGSHENGDLDPTSPLENTDCIQDREEVNGIDGICFQSEESTTEWKETPCMPNVAVKNKQEDLNSEALSPSITCDLSSRVTTEPGSGSPASDNPGCGTPVSDNPASDNPASDNPASDNPDSGDLAAGELATTVQATGDSACEEPPSSDPSSSDPTSSEPSSSEPTCSEPISGDPVSEEAASHDLVSGDSTCSEPVSGEPVSHEAASSEPATSEPASDEPVARVVAACELAPGESALDDCAPSGDSQSDEPPSSEDSLPRSVCSGLASGELTPGELSVEPATDTVKPSSSAVCEAGPDPDKTEPSSNNSDDCPGKSEDDEHLDQIQSKDSCDEGNKVNSNVVEKEEPLETHSAIICSDLPPENTTKIAEDPIAEPALEEEAISSSMEVDQSEKDEHKSPAEPVAAVSEDPAEEDKEDTVVDNTDSMETDEIIPILEKLAPTEDELSCFSKASLLPVETSQDLEDKMEGSFGSPSKQESSENLPKEAFLVLSDEEDLSCGKDESEAVAQSKMSTPEGEKSEKDGKAEEEERVPAEEQPPVRNEFSRRKRSKSEDMDSVESKRRRYMDEEYEAEFQVKITAKGDINQKLQKVIQWLLQEKLCALQCAVFDKTLAELKTRVEKIECNKRHKAVLTELQAKIARLTKRFGAAKDDLKKRQESPPNPPISPGKPANDTNSNNNMTYRNAGTVRQLLESKRNVSEGPPPSFQTPVNTVSSASHATSTAVVSSQPKLQTSATSGSLPAAPLLPAPSTATVVATTQVPSGTPQPTISLQPLPVILHVPVAVTSQPQLLQSHPGTLVTNQPSGNVEFISVQSQPTVSGLTKNPVSLPPLPNPTKPNIPSVPSPSSIQRNSSTTAAPLGTTLAVQAVPTAHSIVQATRTSLPTVGPSGLYSSSSSRGPIQMKIPISTFSPPSSAEQNSSATPRIVTENQTNKTVDSSINKKAADSTSQSGKASSSDSSGVIDLTMDDEESGTTQDPKKISPPSSSTVSTSQPMSRPLQPILPAPPLQPSGVPTSGPSQATIHVLPTAPTTVNVTHRPVTQVTTRLPVPRAPANHQVVYTTLPAPTTQAPLRGTVMQAPAVRQVNPQNSVTVRVPQTTTYVVNNGLTLGSAGPQLTVHHRPPQVHNEPPRPLHPAPLPEAPQPQRLPPEAASTSLPQKPHLKLARVQSQNGIVLSWSVLEVDRSCATVDSYHLYAYHEEPSATVPSQWKKIGEVKALPLPMACTLTQFVSGSKYYFAVRAKDIYGRFGPFCDPQSTDVISSSQNS"}, "B4": {"name": "PPHLN1 (third HUSH core complex component), endogenous (protein, UniProt Q8K2H1 1-381)", "chain": "MWSEGRYDYDRLPRERVPPRSHPSDGYHRVVNVVPKRPPLLDKRPPLLDKRPPLLARPDEGGYSRYYSHVDCRVCDEGRSFSHDRRSGPSHSGDESGYRWLRDDHSTSRQPDYRDMRDGFRRKSFYSSHYSRDRSPHKRDAPFFRESPVGRKDSPHSRSGSSVSSRSYSPERSRTHSFHQSQHRKSSRVGASYKRQNEAIRGRGKERSIQSVKTSRDASPSSSSAVASSKALDKPSRLTEKELAEAESKWANETLEKSDESNLAEMNEFEAGSTAPLFIDQTEEPESNTVDGTELYEDSQLSNRSKAIASKTKEIEQVYRQDCETFGMVVKMLIEKDPSLEKSVQFALRQNLHEIGERCVEELKRFITEYDNSARDFGDPF"}, "B5": {"name": "MPP8, found with purified TASOR (protein, UniProt Q3TYA6 1-858)", "chain": "MAAAAEEGMSAAALVMSVPDSIGRSPESEGVGAGDEEKDAATKGTVAVGDSEEDGEDVFEVERILDMKCEGGKNLYKVRWKGYTSEDDTWEPEVHLEDCKEVLLEFRKKLAENKAKAVRKDIQRLSLNNDIFEADSDSDQQSDTKEDISPRKKKKKIKCKEETSPEDLRKKRTKMGKLKDKFKTELESTSEIIGFDVKTKKRIWEVKEELKDSKKPKKDEIKETKELKKANKRAEVRDLKIKIREDVKENRKTKKERYIESPLESESPNDSLILEDDSEDFISDNREENQNVRSVRDKTAQETVQEGIFEKHLDDLISIEEDAGTRVRRKKTKPRKFEEPKEIKKLESTNAFLERRAIPKKQRNQDKGISNLELNKLPSPVFAQTLKSSRLSGEEKSLKSPDLAEEEKEKKNEPKGKYQKRYDLDKEEKARKEPKVLKSFKEIRNAFDLFKKTTEEKNDVLENNSKREEISLDSKIMNDNKTKDKCSLKEKRNTRDETDTWAYIAAEGDQEVSDSVCQTDETSDGRQPVLSLGMDLQLEWMKLEDFQKHLDGEDEPFITTNRIPNNLLRDAVKNGDYIAVKVALNSNEEYNLDQEDSTGMTLVMLAAAGGQDDLLRLLITKGAKVNGRQKNGTTALIHAAEKNFLTTVAILLEAGAFVNVQQSNGETALMKACKRGNSDIVRLVIECGADCNILSKHQNSALYFAKQCNNVLVYELLKSHLETLSRVAEETIRDYFESRLALLEPVFPIACHRLCEGPDFSTDFNYMPPQNMPEGSGVLLFIFHANFLGKDVIARLCGPCSVQAVVLNDKFQLPVFLDSHFVYSFSPVAGPNKLFIRLTEAPFAKVKLLIGAYRVQLQ"}}, "key": {"[1]": {"target": "T1, MPP8 wild-type (M-Phase Phosphoprotein 8), ectopically expressed, C-terminal double FLAG tag (mouse) (UniProt Q3TYA6)", "T1 sequence": "B5 chain", "experiment": "affinity purification with mass spectrometry; FLAG M2 beads with lysates of Mpp8^mAID; OsTIR1 mESCs expressing double-FLAG MPP8 wt, 1-729 or 112-858, 500 µM IAA 12 h; IP300 buffer (50 mM Tris-HCl pH 7.5, 300 mM NaCl, 0.5% IGEPAL CA-630, 1 mM EDTA), 4 °C overnight; label-free LC-MS/MS; parental Mpp8^mAID cells as background"}, "[2]": {"target": "T2, MPP8^1–729, C-terminally truncated MPP8, C-terminal double FLAG tag (mouse) (UniProt Q3TYA6)", "T2 sequence": "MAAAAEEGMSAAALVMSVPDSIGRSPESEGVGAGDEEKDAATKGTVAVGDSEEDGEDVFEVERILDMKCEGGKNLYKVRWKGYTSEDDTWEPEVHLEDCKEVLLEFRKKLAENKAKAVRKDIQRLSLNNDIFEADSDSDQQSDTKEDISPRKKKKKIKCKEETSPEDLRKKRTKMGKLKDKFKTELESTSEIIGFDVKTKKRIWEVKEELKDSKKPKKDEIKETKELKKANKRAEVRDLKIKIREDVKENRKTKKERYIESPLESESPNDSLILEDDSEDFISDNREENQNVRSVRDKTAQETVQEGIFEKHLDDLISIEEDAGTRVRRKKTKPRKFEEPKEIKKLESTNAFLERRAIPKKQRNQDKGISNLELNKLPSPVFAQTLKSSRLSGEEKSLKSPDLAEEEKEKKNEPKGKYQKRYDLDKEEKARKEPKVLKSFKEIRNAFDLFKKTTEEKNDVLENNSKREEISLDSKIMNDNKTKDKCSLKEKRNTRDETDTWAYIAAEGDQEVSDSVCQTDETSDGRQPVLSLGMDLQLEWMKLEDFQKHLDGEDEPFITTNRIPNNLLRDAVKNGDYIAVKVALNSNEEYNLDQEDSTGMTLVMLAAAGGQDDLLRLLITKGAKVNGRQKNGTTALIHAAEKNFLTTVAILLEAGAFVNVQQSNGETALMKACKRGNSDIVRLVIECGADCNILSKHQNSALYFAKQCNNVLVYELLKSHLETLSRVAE", "experiment": "affinity purification with mass spectrometry; FLAG M2 beads with lysates of Mpp8^mAID; OsTIR1 mESCs expressing double-FLAG MPP8 wt, 1-729 or 112-858, 500 µM IAA 12 h; IP300 buffer (50 mM Tris-HCl pH 7.5, 300 mM NaCl, 0.5% IGEPAL CA-630, 1 mM EDTA), 4 °C overnight; label-free LC-MS/MS; parental Mpp8^mAID cells as background"}, "[3]": {"target": "TASOR, endogenously tagged with a C-terminal double FLAG epitope (Tasor^Flag2) (mouse (endogenous in mESCs)) (UniProt Q69ZR9)", "experiment": "affinity purification with mass spectrometry; FLAG pull-down (FLAG M2 beads, 4 °C overnight) from lysate of Tasor^Flag2 mESCs in IP300 buffer (50 mM Tris-HCl pH 7.5, 300 mM NaCl, 0.5% IGEPAL CA-630, 1 mM EDTA pH 8.0); parental untagged mESCs as background control; LC-MS/MS, label-free; volcano plot FDR = 0.05, s0 = 2; n = 2"}, "[4]": {"target": "TASOR, bait of the purification of TASOR-associated proteins (mouse (endogenous in mESCs)) (UniProt Q69ZR9)", "experiment": "affinity purification with mass spectrometry; TASOR-associated proteins purified (Supplementary Fig. 5a); cells, tag and conditions not given"}}, "note": "Results are given in words; binding and its absence hold for the method and conditions named. Binding seen in cells or lysates may run through a third protein. Here binding means that the protein was enriched with, or labelled near, the bait; the list need not be complete. For part of these data: A no says only that the protein was not detected with the bait. For part of these data: Tags and fused reporters may be left off the sequences shown.", "data": [{"molecule": "TASOR (HUSH core complex member), endogenous (from UniProt Q69ZR9 1-1610)", "values": [{"measurement": "binding", "setting": "[1]", "result": "binds"}, {"measurement": "binding", "setting": "[2]", "result": "no binding"}]}, {"molecule": "Dpf2 (from UniProt Q61103 1-391)", "values": [{"measurement": "binding", "setting": "[3]", "result": "binds"}]}, {"molecule": "Wdr82 (from UniProt Q8BFQ4 1-313)", "values": [{"measurement": "binding", "setting": "[3]", "result": "binds"}]}, {"molecule": "B1", "values": [{"measurement": "binding", "setting": "[3]", "result": "binds"}]}, {"molecule": "B2", "values": [{"measurement": "binding", "setting": "[3]", "result": "binds"}]}, {"molecule": "B3", "values": [{"measurement": "binding", "setting": "[1]", "result": "binds"}]}, {"molecule": "B4", "values": [{"measurement": "binding", "setting": "[4]", "result": "binds"}]}, {"molecule": "B5", "values": [{"measurement": "binding", "setting": "[4]", "result": "binds"}]}]}
